# Assay results reported in PubChem BioAssay AID1458 (National Center for Advancing Translational Sciences (NCATS), 2008).
# Hit rate of the full screen: of about 210,000 compounds, about 5,900 (2.8%) were called active. Not shown: some 5% with an inconclusive outcome. The call rests on the fitted dose curve; in most records, active means well fitted activation curve with a large enough effect; inconclusive means small, poorly fitted or top-dose-only effect; inactive means no such curve, though single readings can be large or run the other way. This is a selection; strong and weak results do not stand in their true shares. The source gives no active or inactive call for entries shown without one.
# Test: qHTS Assay for Enhancers of SMN2 Splice Variant Expression; further: nearly all actives have a fitted effect of over 55% in size; on activity change, positive = activation: % of control where 0% means no effect
# Details: HEK293 SMN2-luciferase splicing reporter, luminescence, 30-36 h; activity change, positive = activation: at 46.1 µM (top of the series) unless noted
# Description: NIH Chemical Genomics Center [NCGC] NIH Molecular Libraries Probe Production centers Network [MLPCN] MLPCN Grant: R03 MH084179-01 Assay Submitter (PI): Elliot Androphy NCGC Assay Overview: Spinal muscular atrophy (SMA) is caused by insufficient levels of the survival motor neuron protein SMN. The SMN locus on chromosome 5q13 contains two inverted copies of SMN called SMN1 and SMN2 which are 99% identical at the amino acid level. SMN1 is a fully functional protein and SMN2 skips exon 7 90% of the time. Skipping of exon 7 produces non-functional protein product. 10% of the SMN2 protein includes exon 7 and is fully functional. In the SMA disease state, mutations in the SMN1 locus are the cause of the disease state. Because only 10% of SMN2 is of the fully functional form, it is not sufficient to overcome the deficiency produced by the loss of the SMN1 product. A therapy that either increase the amount of SMN2 product made or to increase the inclusion of exon 7 has been proposed for the treatment of SMA. We have designed an assay to identify small molecules that can increase the amount of functional SMN2 product by appending a luciferase reporter gene after the native SMN2 gene, such that inclusion of exon 7 in the expressed product places the luciferase sequence in frame, thus generating functional luciferase enzyme.
# NCGC Assay Protocol Summary: This screen utilizes a luciferase reporter gene assay, combining the promoter and splicing based cassettes in tandem with the major portion of the native SMN2 cDNA, and then transfected into HEK293 cells. Compounds that increase luciferase signal presumably enhance expression of the functional SMN2 splice variant. Passaging media contained DMEM w/ glutamax (+phenol red) 10% FCS, 1x pen/strep, 200 ug/ml hygro, 1x sodium pyruvate. Assay media contained DMEM w/ glutamax (-phenol red) 10% FCS, 1x pen strep, 1x pyruvate Sequence, Parameter, Value, Description (1) Cells, […], 2000 cells/well, 1536 TC treated White solid bottom plate (2) Time, 10-12 hours, 37C 5% CO2 (3) Compound, 23 nl, MLSMR Library (4) Control Compound, 23 nL, Sodium butyrate st 4.5mM (final) conc (5) Time, 30-36 hours, 37C 5% CO2 (6) Reagent, 3 ul, One Glo (TM) from Promega (7) Time, 5-15 minutes, Room temp (8) Detector, Viewlux: luminescent read, 60 second integration, high speed 2x binning Keywords: Spinal muscular atrophy, SMA, SMN2, high throughput screening, MLSMR, MLPCN, NIH Roadmap, qHTS and NCGC
# Potency means the concentration at half of the fitted maximal effect.
Compound,"activity change, positive = activation",Potency
COc1ccc(Cn2c(=O)[nH]c3cc(C(=O)N4CCN(c5ccccn5)CC4)ccc3c2=O)cc1,-53.2%,–
O=C(COc1ccccc1O)N1CCN(C(=O)c2ccco2)CC1,31.7%,–
CC1CCCN(c2nc3ccccc3nc2C(C#N)S(=O)(=O)c2cccs2)C1 (stereo not drawn),inactive: -36.8%,–
O=C(Nc1nc2ccc(F)cc2s1)C1=NN(c2ccccc2)C(=O)CC1,30.3%,–
CC(OC(=O)CNC(=O)c1ccccc1F)C(=O)Nc1nc(-c2ccccc2)cs1 (stereo not drawn),–,active: 12.6 µM
CC(C)c1ccc(NC(=S)NC2CCCCCC2)cc1,–,active: 12.6 µM
COc1ccc(CNC(=O)c2cccc(N(C)C)c2)cc1,27.4%,–
O=C(CS(=O)(=O)Cc1ccccc1)Nc1ncccn1,31.1%,–
NNc1nc(-c2ccccc2Cl)nc2sc3c(c12)CCCC3,-63.3%,–
O=C(N/N=C/C(Br)=C/c1ccccc1)C1CC1,51.1%,–
Fc1ccc2nc(Nc3ccccc3)sc2c1,–,active: 15.8 µM
O=C(NCc1ccc2c(c1)OCO2)c1cc(-c2ccccc2)on1,38.9%,–
Cc1ccc(Cn2ccc(NC(=O)CCSc3nc(-c4ccco4)cc(C(F)(F)F)n3)n2)cc1,21%,–
COc1cc(CN2CCN(Cc3ccc([N+](=O)[O-])cc3)CC2)c([N+](=O)[O-])cc1OC,inactive: -60.7%,–
O=C(Nc1cnc2ccccn2c1=O)c1ccc(Cl)cc1Cl,–,active: 1.58 µM
O=C(OCc1ccco1)c1ccc(S(=O)(=O)N2CCCCC2)cc1,15.2%,–
CN1CCN(c2ccc(NC(=O)c3ccc4c(c3)OCCO4)cc2Cl)CC1,–,active: 14.1 µM
COc1ccc(OCCSc2ncn[nH]2)cc1,33.9%,–
O=C(COc1ccc(F)cc1)Nc1nccs1,–,active: 11.2 µM
CCc1c(O)cc(=O)n(-c2ccccc2)c1-c1ccccc1,inactive: -12.2%,–
COc1ccccc1Nc1nc2ccccc2n1C,–,active: 11.2 µM
COc1ccc(Cc2nc(C(=O)Nc3ccccc3)cs2)cc1,inactive: -67.3%,–
O=C(CCSc1ccccc1)N1CCN(C(=O)c2ccco2)CC1,45.1%,–

Compound,"activity change, positive = activation",Potency
NC(=O)Cc1ccc2sc(-c3ccccc3)nc2c1,-25.8%,–
C/C(O)=C\c1nc(=O)c2c(C)cc(C)nc2n1-c1ccccc1,38.2%,–
O=C(CSC1=Nc2ccccc2C2=NC(CCC(=O)NC3CCCCC3)C(=O)N12)Nc1cccc(Cl)c1 (stereo not drawn),46.5%,–
CC1(C)Cc2c(c(N3CCOCC3)nc3sc4c(NN)ncnc4c23)CS1,inactive: -61.4%,–
CCc1ccc2c(c1)C(c1ccc([N+](=O)[O-])cc1)=NNC(c1ccccc1)=N2,31.2%,–
CCCCOCC1CN(c2ccccc2)C(=O)CS1 (stereo not drawn),31%,–
Cc1ccccc1-c1ccc(C=Nc2c(C)n(C)n(-c3ccccc3)c2=O)o1,inactive: -34.1%,–
CCc1nnc(NC(=O)CCC(=O)N2CCN(Cc3ccc(Cl)cc3)CC2)s1,-49%,–
O=C(C1CCC(CNc2nc(=S)[nH]c3ccccc23)CC1)N1CCN(c2ccc(F)cc2)CC1 (stereo not drawn),-48.8%,–
CC1CC2(CC(C)(C(=O)CSc3n[nH]c(-c4ccccc4Cl)n3)OC2=O)C(=O)O1 (stereo not drawn),77.2%,–
Cc1ccc(-n2c(SCc3cn4ccsc4n3)nc3ccccc3c2=O)cc1,47.3%,–
COCc1nc(-c2ccc(-c3ccccc3)nc2OC)no1,–,active: 22.4 µM
CC1CN(S(=O)(=O)c2cccc(C(=O)Nc3ccc4c(c3)CCC4)c2)CC(C)O1 (stereo not drawn),-60.3%,–
O=C(O)c1ccc(/C=N/NC(=O)C2CC2(c2ccccc2)c2ccccc2)cc1 (stereo not drawn),40.1%,–
COc1ccc(NC(C)C(=O)N/N=C/c2ccc([N+](=O)[O-])s2)cc1 (stereo not drawn),inactive: -60.5%,–
O=C(N/N=C/c1ccc(O)cc1O)c1ccc(CN2C(=O)c3cccc4cccc2c34)cc1,inactive: -81.4%,–
CCn1c(=O)cc(SCC(=O)NCc2ccc(C)cc2)c2ccccc21,22.6%,–
Cc1cc2nc(-c3ccc(SCc4ccccc4C#N)nc3)[nH]c2cc1C,–,active: 11.2 µM
CN(C)N1C(N)=C(C#N)C(c2cccs2)C2=C1CC(C)(C)CC2=O (stereo not drawn),inactive: -51.7%,–
Cc1cc(C)c(C#N)c(SCc2nnc(-c3ccccc3[N+](=O)[O-])o2)n1,–,active: 1.12 µM
Cc1cccc(S(=O)(=O)Nc2ccc(-c3nc4ccc(C)cc4s3)cc2)c1,–,active: 11.2 µM
COc1ccc(Cn2c3nc4ccccc4nc3c3c(=O)n(Cc4ccco4)c(C)nc32)cc1,35.3%,–
Cc1occc1C(=O)Nc1cccc2ccccc12,–,active: 3.16 µM

# Fetched one by one from the list above:
Compound,"activity change, positive = activation",Potency
CCn1c(=O)cc(SCC(=O)NCc2ccc(C)cc2)c2ccccc21,22.6%,–
Cc1ccccc1-c1ccc(C=Nc2c(C)n(C)n(-c3ccccc3)c2=O)o1,inactive: -34.1%,–

# (cont.)

Compound,"activity change, positive = activation",Potency
COc1cc2[nH]c(=S)n(C3CCCC3)c(=O)c2cc1OC,59.8%,–
Cc1ccc(C(=O)N2c3ccccc3CC2C)o1 (stereo not drawn),–,active: 15.8 µM
CCC(=O)c1ccc(N2CCN(C(=O)c3ccc(Br)cc3)CC2)c(F)c1,-49.2%,–
CCOCC(=O)Nc1nc2c(s1)C(=O)CC(C)(C)C2,32%,–
CN(C(=O)CSc1nnc(Nc2ccccc2)s1)c1c(N)n(Cc2ccccc2)c(=O)[nH]c1=O,29%,–
CCN(CC(=O)Nc1cc(C)c(Cl)cc1OC)CC(=O)NC1CCS(=O)(=O)C1 (stereo not drawn),35%,–
Cc1nc2scc(C)n2c(=O)c1S(=O)(=O)NCc1ccccc1Cl,40.1%,–
O=C(Nc1c(C(=O)N2CCOCC2)cnn1-c1ccccc1Cl)c1ccco1,32.8%,–
O=C(Nc1cnccn1)Nc1ccc(Cl)cc1Cl,57.8%,–
COc1cccc(N=Nc2c(N)[nH][nH]c2=O)c1,–,active: 10 µM
COC(=O)COc1cc(OCC(=O)OC)c2c(C)c(Cl)c(=O)oc2c1,33.9%,–
Cc1ccc(NC(=O)N2N=C(c3ccc(F)cc3)CC2c2ccc(F)cc2)cc1 (stereo not drawn),4.7%,–
CCOC(=O)/C(=N\Nc1ccccc1Cl)N(C)C1CCS(=O)(=O)C1 (stereo not drawn),26.3%,–
O=C1c2cccc(OCC(=O)N3CCCc4ccccc43)c2CCN1Cc1ccc(F)cc1,inactive: -87%,–
COC(=O)c1cc(CSc2nc3ccccc3[nH]2)oc1C,inactive: -44.9%,–
COc1ccc(C(=O)/C=C(\C)NCc2ccc3c(c2)OCO3)cc1,30.3%,–
c1ccc(-n2ncc3c2ncn2nc(-c4ccco4)nc32)cc1,–,active: 11.2 µM
O=C(c1ccc(F)cc1)c1ccc(N2CCCC2)cc1,98.6%,–
COc1cc(C2C=C(Nc3ccccc3)C(=O)N2c2ccccc2)ccc1O (stereo not drawn),-94.5%,–
Clc1cccc(-c2nnc(-c3ccccc3)o2)c1,–,active: 12.6 µM
CNc1nnc(-c2ccc(N(C)C)cc2)s1,–,active: 2.82 µM
CCOCc1nnc(NC(=O)c2ccc(OC)cc2)s1,–,active: 17.8 µM
